Results reported in PMC11315126.
No constants are given. Whether binding was seen depends on the method and setting. Sequences can lack the tags named with a protein.

Target: T1, His6TraW (E. coli F plasmid) (UniProt P18472)
T1 sequence: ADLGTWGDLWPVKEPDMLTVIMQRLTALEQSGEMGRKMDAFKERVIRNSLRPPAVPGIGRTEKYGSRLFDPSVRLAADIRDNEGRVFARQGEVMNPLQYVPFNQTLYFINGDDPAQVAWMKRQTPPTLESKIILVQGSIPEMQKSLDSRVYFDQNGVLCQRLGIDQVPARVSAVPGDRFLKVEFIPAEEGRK
Assay: SEC; analytical UPLC, Zenix SEC-150, 1.0 mL/min, proteins at 19 μM in 20 mM HEPES pH 7.5, 150 mM NaCl, with 2 mM DTT; mixture kept on ice for 30 min; both purified

- binding: no binding (tested: 19 μM)
Substance: TrbB_(37-161) (E. coli F plasmid) (domain or fragment)
